Laboratory results taken from paper PMC7819943, “Rice protein-binding microarrays: a tool to detect cis-acting elements near promoter regions in rice”.
Some of the results follow.

Amino acid sequences for entries named in this document (tags omitted).
UniProt Q0JBA9, entry or part of it: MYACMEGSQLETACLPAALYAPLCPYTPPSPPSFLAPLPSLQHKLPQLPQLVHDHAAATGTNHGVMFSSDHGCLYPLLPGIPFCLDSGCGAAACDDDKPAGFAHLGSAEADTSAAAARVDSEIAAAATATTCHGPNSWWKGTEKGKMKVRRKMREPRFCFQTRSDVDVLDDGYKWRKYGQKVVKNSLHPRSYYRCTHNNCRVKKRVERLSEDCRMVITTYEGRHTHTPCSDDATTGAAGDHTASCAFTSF

Target: OsWRKY34 (Oryza sativa, UniProt Q0JBA9 1-250)
Test: protein-binding microarray (RPBM); PBS, 2% BSA, 51.3 ng/ul salmon testes DNA, 50 uM zinc acetate, 200 nM TF, 25 C, 1 h; high values mean tight binding
Settings: protein: recombinant; tags: N-terminal polyhistidine and DsRed monomer fusion (pET32a); label: CyDye5-dUTP incorporated in the synthesized complementary strand; 3' TTTTT single-stranded linker to array surface; dsDNA, one strand shown
Procedure, shortened: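 Using Ni–NTA, transcription factors fused N-terminally to polyhistidine and DsRed were purified after expression in E. coli BL21-CodonPlus. These were incubated at 200 nM with a blocked, double-stranded custom Agilent array for 1 h at 25 °C in a buffer containing 50 µM zinc acetate, and the array was washed. The binding signal is per-feature fluorescence intensity (arbitrary units) on an Axon 4000B scanner.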

Sequence	binding signal
CCTCTCCCAATCTCCAAAGTGTCATTTCACATTGACTTCACGGAGTCACCTAGTGCAG	8950 fluorescence intensity (a.u.)
ACCCGTCACCAACCTAGCTCGCGAGACAGCTCATCATTTGCGGAGTCACCTAGTGCAG	8540 fluorescence intensity (a.u.)
GCCTTCGCTCTTCGTCGGGTCAGCTCCTGCCTTCCAAAGTCGGAGTCACCTAGTGCAG	9040 fluorescence intensity (a.u.)
GGAGGAAGCCTACCTTTGCCATTATCTTTTCGTGGGCCCACGGAGTCACCTAGTGCAG	8640 fluorescence intensity (a.u.)
TTCGATACGTTTCACGTTTGCTACCACACAACACATTTCACGGAGTCACCTAGTGCAG	9420 fluorescence intensity (a.u.)
CCCGGCCACATTATTTCGGGTCAAATTCGGGTCGAGAATTCGGAGTCACCTAGTGCAG	8330 fluorescence intensity (a.u.)
TCATCCATAGTTAAAAGCAAGTTGGTCTGACCATATTCTTCGGAGTCACCTAGTGCAG	8390 fluorescence intensity (a.u.)
TGTAACTAACCATAAAGCTACCCTCATACTTGCTGATAACCGGAGTCACCTAGTGCAG	8800 fluorescence intensity (a.u.)
AACTCGGCTCAACTCGTACGCACCGGCGCTGCCGCGCCTTCGGAGTCACCTAGTGCAG	10400 fluorescence intensity (a.u.)
CATCCAAACCGTCCATCCACGCGCACAGTACACACACATACGGAGTCACCTAGTGCAG	11200 fluorescence intensity (a.u.)
ATGATGTATCTGTATCAACTTGTTCAATCTCGGTTAACTGCGGAGTCACCTAGTGCAG	8090 fluorescence intensity (a.u.)
CTCTCAATACGAAATATCGTACTACGTTATGCATTTGTTTCGGAGTCACCTAGTGCAG	8160 fluorescence intensity (a.u.)
TTCATTTACTAGTTATTGGGGTTCTTCTTCAGATCATTTGCGGAGTCACCTAGTGCAG	9370 fluorescence intensity (a.u.)
TAACACCCTCCGCGCATTTACCGCTCGCCGCTCCGCCGTACGGAGTCACCTAGTGCAG	8330 fluorescence intensity (a.u.)
ATTATAAGGTATTGCATGCTATGTTTTCCTTGCGACTTAACGGAGTCACCTAGTGCAG	8650 fluorescence intensity (a.u.)
TATTTGGACTCTATACTCTACTTCTAATATTCGTTATTTTCGGAGTCACCTAGTGCAG	9980 fluorescence intensity (a.u.)
TGTAGGATGTATTTGGAGTTTCAACTAGTTCCAAGATTTTCGGAGTCACCTAGTGCAG	10100 fluorescence intensity (a.u.)
TCCCACTATTTCCTATCTCTCGCGTCGCGCCGCGCACTCCCGGAGTCACCTAGTGCAG	9080 fluorescence intensity (a.u.)
CCTCGCCGGACAAGTAAAGTAAGCTCATCTCTTGCGCTTTCGGAGTCACCTAGTGCAG	8130 fluorescence intensity (a.u.)
AACTGAAAGATCATTGTACACACCAGCATTACCTGTAAACCGGAGTCACCTAGTGCAG	8370 fluorescence intensity (a.u.)
CGTCCATGCACTTCACTCAATTTTTTTCTTTGCACATAACCGGAGTCACCTAGTGCAG	10400 fluorescence intensity (a.u.)

Sequence	binding signal
TCTCGTTTGAAGTTTTTTTTTTTCGCGTGTCCACAACCATCGGAGTCACCTAGTGCAG	9480 fluorescence intensity (a.u.)
CTCATCTCGCCCTTCTTTGCCACCGCCAACATCTTCGTCGCGGAGTCACCTAGTGCAG	11900 fluorescence intensity (a.u.)
AAGTCTTTGATCCCCTTTAATTCCTTGTTCCATGTACTACCGGAGTCACCTAGTGCAG	9080 fluorescence intensity (a.u.)
GGCGGGTGGTGATGGCGGGGAGGCAGGCCAACGAGCGCGACGGAGTCACCTAGTGCAG	10700 fluorescence intensity (a.u.)
TGTCGTTGTTGTCATCGTTCTTTAATTTCCTGTCCTTTCACGGAGTCACCTAGTGCAG	10300 fluorescence intensity (a.u.)
ACTCAACCATTTATTTTTCCAACCTACTTCCTTCGTCTCACGGAGTCACCTAGTGCAG	8990 fluorescence intensity (a.u.)
GTCAAACATGTGCTAAAAAGTCAACAGTGTCAAACATTTCCGGAGTCACCTAGTGCAG	9540 fluorescence intensity (a.u.)
CTACGCGCACACGACCCTACCACTCTATGGTTTTCCTTTTCGGAGTCACCTAGTGCAG	11300 fluorescence intensity (a.u.)
GATCACGCGGCGCCCACCCACGCTTTTACCCCTTCCTGGTCGGAGTCACCTAGTGCAG	8050 fluorescence intensity (a.u.)
CAACATCTGGTCGTAATAACTACGTTGAATATTACCCTCTCGGAGTCACCTAGTGCAG	10200 fluorescence intensity (a.u.)
GTGATATCCTCTTAGCTCATGCATTTCATTTCATCAGGTTCGGAGTCACCTAGTGCAG	8080 fluorescence intensity (a.u.)
TCACTTTTCTTCTTCTCCTCTTCACTTTTCTCTTCACCGTCGGAGTCACCTAGTGCAG	8940 fluorescence intensity (a.u.)
ATCACCGCACCACCTCTATTCGCGAATCCACTCCTACCTTCGGAGTCACCTAGTGCAG	10900 fluorescence intensity (a.u.)
CTCATCTCCTTCCTTGCTGCGTTTCGTTTCTTCCCCAAAACGGAGTCACCTAGTGCAG	12900 fluorescence intensity (a.u.)
TGTAGGAGTAGACTATATACAGGGCCTTCACTTCAGCCTTCGGAGTCACCTAGTGCAG	8480 fluorescence intensity (a.u.)
TTTCATTTTTTTCCATTACATCGTTCTAATTTCTTCGAATCGGAGTCACCTAGTGCAG	8680 fluorescence intensity (a.u.)
GCTAAAACCGTCGTCCAAACCGTTATGGGACTTATATTGCCGGAGTCACCTAGTGCAG	8520 fluorescence intensity (a.u.)
TCCTCCGAATCCCAATCTCTCGCAGTTCGTTCGAGGAGCTCGGAGTCACCTAGTGCAG	8540 fluorescence intensity (a.u.)
GCATCGACGGACCACACCTGCGCTCCACTCCCTAACCTCGCGGAGTCACCTAGTGCAG	8120 fluorescence intensity (a.u.)
AGCCATCGATCTTATTCTTATCCATGCTGCTCTGGAACTACGGAGTCACCTAGTGCAG	9350 fluorescence intensity (a.u.)
TCGTTCCTTTTATTTTCGCAGGCGGGCCGTTGCCCCAACTCGGAGTCACCTAGTGCAG	8230 fluorescence intensity (a.u.)

Sequence	binding signal
CGTATTTCTATCTGCTTAACTGGCCCGTTTGAAACTGATTCGGAGTCACCTAGTGCAG	8850 fluorescence intensity (a.u.)
GGGATAAGTTTTTCTGGGGATCTACTTGCGAAATAAGTTTCGGAGTCACCTAGTGCAG	10400 fluorescence intensity (a.u.)
CCTTATCCACTCCTACCGCTTTCCGCTCTCGTCCCTCCGGCGGAGTCACCTAGTGCAG	11700 fluorescence intensity (a.u.)
CCGCCCTTCTGCGCGCCGCCAACACCGTTCCTCCGCCGCGCGGAGTCACCTAGTGCAG	8230 fluorescence intensity (a.u.)
TGTACTGATATATTCTTCTACTATGCAGTTGACTTGTTGACGGAGTCACCTAGTGCAG	8660 fluorescence intensity (a.u.)
CGAGTTTACTTCTCTTGCTATGCACTTCTTTTCATCTTAACGGAGTCACCTAGTGCAG	8030 fluorescence intensity (a.u.)
CCTCGCATTTCTGTACTACGCCCTAAGTTACATTCTCTACCGGAGTCACCTAGTGCAG	11000 fluorescence intensity (a.u.)
GCCTCTGCCTCTCGCTCTCTCTCTCTAGGCGGCGCAAATGCGGAGTCACCTAGTGCAG	9480 fluorescence intensity (a.u.)
ACAAATCACCACCGACACGTTACTATTGATGTATATTATACGGAGTCACCTAGTGCAG	9870 fluorescence intensity (a.u.)
CGGTCGCGGGTCGTCCTCCTTCCGTTCCGCGTCCTCTCAACGGAGTCACCTAGTGCAG	8250 fluorescence intensity (a.u.)
AACTGTCGACAACTCCGTAGCTAGTCCCTTGTTTAATTTTCGGAGTCACCTAGTGCAG	11000 fluorescence intensity (a.u.)
TTGCTTTCGCCACTTCGGTCCAAGACCTTTGTTGATTTAGCGGAGTCACCTAGTGCAG	8590 fluorescence intensity (a.u.)
TGCAAAGTAGTAGTTGGGGATTTAATAGTGGCTTACAATACGGAGTCACCTAGTGCAG	8620 fluorescence intensity (a.u.)
TCGCATTGAATGGTATTTTTCCAATTAAAATCTCTTTGCACGGAGTCACCTAGTGCAG	8670 fluorescence intensity (a.u.)
GCAAAATTGACGCCCAAACTGCCCATTTTTTCATCGAGAACGGAGTCACCTAGTGCAG	8090 fluorescence intensity (a.u.)
GAGGAGGTGGTGGCGCGGCGTTCTTGGGGCTGGAGAGGGTCGGAGTCACCTAGTGCAG	8790 fluorescence intensity (a.u.)
GTATTTTTTGATGACCGAGGGATAGATCGTGCTTGACTTGCGGAGTCACCTAGTGCAG	9950 fluorescence intensity (a.u.)
GTTCTTGCTACTACAATCTGGCAGTCAGAGGCTGTTTTCCCGGAGTCACCTAGTGCAG	8440 fluorescence intensity (a.u.)
TCTGTCTATCCTTTGTAAAGTCACTTGCCCTTGCATTACTCGGAGTCACCTAGTGCAG	16500 fluorescence intensity (a.u.)
AGAGAGAGGTTGCTGTTTCGATGCGTATTTCTGCAGCTTTCGGAGTCACCTAGTGCAG	10100 fluorescence intensity (a.u.)
CCGTCTGACCAACTGGTCAGATCTGCAGGCCTCCTCTGAGCGGAGTCACCTAGTGCAG	9050 fluorescence intensity (a.u.)

Sequence	binding signal
CTTCTCTCGCGCTCGATTCGCTTTTGTTTGTTGGGTGCAACGGAGTCACCTAGTGCAG	11200 fluorescence intensity (a.u.)
TTCCCTTTTCTTCCTCTTTCTTCTCATCTTGGTTTCTTCCCGGAGTCACCTAGTGCAG	8730 fluorescence intensity (a.u.)
CACCCTCACCCTCACGCCCACCCGCACCCGGACGCGCACCCGGAGTCACCTAGTGCAG	9130 fluorescence intensity (a.u.)
TAACGCGTTATGTAAACTTTTTGACCAACCAACCGCGATCCGGAGTCACCTAGTGCAG	8800 fluorescence intensity (a.u.)
CCCACCCACCCATGCGGGACCCGATCCCCTCGCCCGCCTCCGGAGTCACCTAGTGCAG	9550 fluorescence intensity (a.u.)
TCCGCGACGGCCGCTTCCCGTTCCTGTACTTGCGATCCCTCGGAGTCACCTAGTGCAG	9200 fluorescence intensity (a.u.)
CACCATCTAGACACTTCCATCATGTTATCATACTAGTAACCGGAGTCACCTAGTGCAG	9070 fluorescence intensity (a.u.)
CACCTACTCAATGCCTCATCTATCTATTACGAGTTCATTCCGGAGTCACCTAGTGCAG	8620 fluorescence intensity (a.u.)
CATGCGTCGTACTAGTGTACTACTACTCTCCTTTCTTTACCGGAGTCACCTAGTGCAG	8200 fluorescence intensity (a.u.)
CCTCCATCCTTTGCTCCCAATATCACATTTGCGTTTTGCACGGAGTCACCTAGTGCAG	10000 fluorescence intensity (a.u.)
CTCTCTCTCTCTCTCTATCGATTGTCATAAAATTTCATAACGGAGTCACCTAGTGCAG	8030 fluorescence intensity (a.u.)
ACGAATGCTACGTACAGTCAACTTAATATTTCTTCGCCATCGGAGTCACCTAGTGCAG	8160 fluorescence intensity (a.u.)
ACTTGATCCCAGCATCCGCATCCGCAGCTGCAGCAGCAGCCGGAGTCACCTAGTGCAG	8090 fluorescence intensity (a.u.)
GGTTTGACTAACTTGAACAATTTTCATCAATCCCAAACTGCGGAGTCACCTAGTGCAG	8210 fluorescence intensity (a.u.)
CATCCGGCCATGGTGATGACCGGCGGCGATGATCAGCAGCCGGAGTCACCTAGTGCAG	48200 fluorescence intensity (a.u.)
ATTTTTTTCCTCTCTAGTTTCACAATGCCGGCAATTATTTCGGAGTCACCTAGTGCAG	8480 fluorescence intensity (a.u.)
TTATCTCTCCAGAGAGCCATTGCCGCCACTCCATCCTCGCCGGAGTCACCTAGTGCAG	8570 fluorescence intensity (a.u.)
GGAATGTTCTTTTGGTTCTGAATTCTGATTCATTTTCCTACGGAGTCACCTAGTGCAG	9620 fluorescence intensity (a.u.)
AGGTTCCTAGTGTTGATCATCTACTGTTTGCAGCTGGGTTCGGAGTCACCTAGTGCAG	11100 fluorescence intensity (a.u.)
GATTATTTTCTTCATACTCAGCATTCTTTTTTTTCTTCTTCGGAGTCACCTAGTGCAG	10600 fluorescence intensity (a.u.)
CGTTTTTGATCGCTGCCATCCCTACACCCTCATGCTGTTCCGGAGTCACCTAGTGCAG	10000 fluorescence intensity (a.u.)

No new results follow: entries from further up.
Sequence	binding signal
TAACGCGTTATGTAAACTTTTTGACCAACCAACCGCGATCCGGAGTCACCTAGTGCAG	8800 fluorescence intensity (a.u.)
CCCACCCACCCATGCGGGACCCGATCCCCTCGCCCGCCTCCGGAGTCACCTAGTGCAG	9550 fluorescence intensity (a.u.)
TCCGCGACGGCCGCTTCCCGTTCCTGTACTTGCGATCCCTCGGAGTCACCTAGTGCAG	9200 fluorescence intensity (a.u.)
